The list shows a part of the results.
Compound: Cc1cc(ccc1-c1ccccc1)C(=O)N1CCCN(CC1)C(=O)CCl [compound 10]
Experiment: probe-labelled cysteine peptide fold change vs DMSO (competition) (log2 fold change); higher = less target engagement (more negative = stronger competition)
Details: THP-1, incubation time: 4 h
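Note: competitive profiling in live THP-1 cells: cysteine peptides tagged with an iodoacetamide desthiobiotin (IA-DTB) probe, intensity after compound treatment relative to DMSO-treated cells.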

Sequences of proteins named here, by UniProt entry; tags and fusion partners are left off. A change or cut given only in a name is not applied to a line headed by its entry.
UniProt Q99698: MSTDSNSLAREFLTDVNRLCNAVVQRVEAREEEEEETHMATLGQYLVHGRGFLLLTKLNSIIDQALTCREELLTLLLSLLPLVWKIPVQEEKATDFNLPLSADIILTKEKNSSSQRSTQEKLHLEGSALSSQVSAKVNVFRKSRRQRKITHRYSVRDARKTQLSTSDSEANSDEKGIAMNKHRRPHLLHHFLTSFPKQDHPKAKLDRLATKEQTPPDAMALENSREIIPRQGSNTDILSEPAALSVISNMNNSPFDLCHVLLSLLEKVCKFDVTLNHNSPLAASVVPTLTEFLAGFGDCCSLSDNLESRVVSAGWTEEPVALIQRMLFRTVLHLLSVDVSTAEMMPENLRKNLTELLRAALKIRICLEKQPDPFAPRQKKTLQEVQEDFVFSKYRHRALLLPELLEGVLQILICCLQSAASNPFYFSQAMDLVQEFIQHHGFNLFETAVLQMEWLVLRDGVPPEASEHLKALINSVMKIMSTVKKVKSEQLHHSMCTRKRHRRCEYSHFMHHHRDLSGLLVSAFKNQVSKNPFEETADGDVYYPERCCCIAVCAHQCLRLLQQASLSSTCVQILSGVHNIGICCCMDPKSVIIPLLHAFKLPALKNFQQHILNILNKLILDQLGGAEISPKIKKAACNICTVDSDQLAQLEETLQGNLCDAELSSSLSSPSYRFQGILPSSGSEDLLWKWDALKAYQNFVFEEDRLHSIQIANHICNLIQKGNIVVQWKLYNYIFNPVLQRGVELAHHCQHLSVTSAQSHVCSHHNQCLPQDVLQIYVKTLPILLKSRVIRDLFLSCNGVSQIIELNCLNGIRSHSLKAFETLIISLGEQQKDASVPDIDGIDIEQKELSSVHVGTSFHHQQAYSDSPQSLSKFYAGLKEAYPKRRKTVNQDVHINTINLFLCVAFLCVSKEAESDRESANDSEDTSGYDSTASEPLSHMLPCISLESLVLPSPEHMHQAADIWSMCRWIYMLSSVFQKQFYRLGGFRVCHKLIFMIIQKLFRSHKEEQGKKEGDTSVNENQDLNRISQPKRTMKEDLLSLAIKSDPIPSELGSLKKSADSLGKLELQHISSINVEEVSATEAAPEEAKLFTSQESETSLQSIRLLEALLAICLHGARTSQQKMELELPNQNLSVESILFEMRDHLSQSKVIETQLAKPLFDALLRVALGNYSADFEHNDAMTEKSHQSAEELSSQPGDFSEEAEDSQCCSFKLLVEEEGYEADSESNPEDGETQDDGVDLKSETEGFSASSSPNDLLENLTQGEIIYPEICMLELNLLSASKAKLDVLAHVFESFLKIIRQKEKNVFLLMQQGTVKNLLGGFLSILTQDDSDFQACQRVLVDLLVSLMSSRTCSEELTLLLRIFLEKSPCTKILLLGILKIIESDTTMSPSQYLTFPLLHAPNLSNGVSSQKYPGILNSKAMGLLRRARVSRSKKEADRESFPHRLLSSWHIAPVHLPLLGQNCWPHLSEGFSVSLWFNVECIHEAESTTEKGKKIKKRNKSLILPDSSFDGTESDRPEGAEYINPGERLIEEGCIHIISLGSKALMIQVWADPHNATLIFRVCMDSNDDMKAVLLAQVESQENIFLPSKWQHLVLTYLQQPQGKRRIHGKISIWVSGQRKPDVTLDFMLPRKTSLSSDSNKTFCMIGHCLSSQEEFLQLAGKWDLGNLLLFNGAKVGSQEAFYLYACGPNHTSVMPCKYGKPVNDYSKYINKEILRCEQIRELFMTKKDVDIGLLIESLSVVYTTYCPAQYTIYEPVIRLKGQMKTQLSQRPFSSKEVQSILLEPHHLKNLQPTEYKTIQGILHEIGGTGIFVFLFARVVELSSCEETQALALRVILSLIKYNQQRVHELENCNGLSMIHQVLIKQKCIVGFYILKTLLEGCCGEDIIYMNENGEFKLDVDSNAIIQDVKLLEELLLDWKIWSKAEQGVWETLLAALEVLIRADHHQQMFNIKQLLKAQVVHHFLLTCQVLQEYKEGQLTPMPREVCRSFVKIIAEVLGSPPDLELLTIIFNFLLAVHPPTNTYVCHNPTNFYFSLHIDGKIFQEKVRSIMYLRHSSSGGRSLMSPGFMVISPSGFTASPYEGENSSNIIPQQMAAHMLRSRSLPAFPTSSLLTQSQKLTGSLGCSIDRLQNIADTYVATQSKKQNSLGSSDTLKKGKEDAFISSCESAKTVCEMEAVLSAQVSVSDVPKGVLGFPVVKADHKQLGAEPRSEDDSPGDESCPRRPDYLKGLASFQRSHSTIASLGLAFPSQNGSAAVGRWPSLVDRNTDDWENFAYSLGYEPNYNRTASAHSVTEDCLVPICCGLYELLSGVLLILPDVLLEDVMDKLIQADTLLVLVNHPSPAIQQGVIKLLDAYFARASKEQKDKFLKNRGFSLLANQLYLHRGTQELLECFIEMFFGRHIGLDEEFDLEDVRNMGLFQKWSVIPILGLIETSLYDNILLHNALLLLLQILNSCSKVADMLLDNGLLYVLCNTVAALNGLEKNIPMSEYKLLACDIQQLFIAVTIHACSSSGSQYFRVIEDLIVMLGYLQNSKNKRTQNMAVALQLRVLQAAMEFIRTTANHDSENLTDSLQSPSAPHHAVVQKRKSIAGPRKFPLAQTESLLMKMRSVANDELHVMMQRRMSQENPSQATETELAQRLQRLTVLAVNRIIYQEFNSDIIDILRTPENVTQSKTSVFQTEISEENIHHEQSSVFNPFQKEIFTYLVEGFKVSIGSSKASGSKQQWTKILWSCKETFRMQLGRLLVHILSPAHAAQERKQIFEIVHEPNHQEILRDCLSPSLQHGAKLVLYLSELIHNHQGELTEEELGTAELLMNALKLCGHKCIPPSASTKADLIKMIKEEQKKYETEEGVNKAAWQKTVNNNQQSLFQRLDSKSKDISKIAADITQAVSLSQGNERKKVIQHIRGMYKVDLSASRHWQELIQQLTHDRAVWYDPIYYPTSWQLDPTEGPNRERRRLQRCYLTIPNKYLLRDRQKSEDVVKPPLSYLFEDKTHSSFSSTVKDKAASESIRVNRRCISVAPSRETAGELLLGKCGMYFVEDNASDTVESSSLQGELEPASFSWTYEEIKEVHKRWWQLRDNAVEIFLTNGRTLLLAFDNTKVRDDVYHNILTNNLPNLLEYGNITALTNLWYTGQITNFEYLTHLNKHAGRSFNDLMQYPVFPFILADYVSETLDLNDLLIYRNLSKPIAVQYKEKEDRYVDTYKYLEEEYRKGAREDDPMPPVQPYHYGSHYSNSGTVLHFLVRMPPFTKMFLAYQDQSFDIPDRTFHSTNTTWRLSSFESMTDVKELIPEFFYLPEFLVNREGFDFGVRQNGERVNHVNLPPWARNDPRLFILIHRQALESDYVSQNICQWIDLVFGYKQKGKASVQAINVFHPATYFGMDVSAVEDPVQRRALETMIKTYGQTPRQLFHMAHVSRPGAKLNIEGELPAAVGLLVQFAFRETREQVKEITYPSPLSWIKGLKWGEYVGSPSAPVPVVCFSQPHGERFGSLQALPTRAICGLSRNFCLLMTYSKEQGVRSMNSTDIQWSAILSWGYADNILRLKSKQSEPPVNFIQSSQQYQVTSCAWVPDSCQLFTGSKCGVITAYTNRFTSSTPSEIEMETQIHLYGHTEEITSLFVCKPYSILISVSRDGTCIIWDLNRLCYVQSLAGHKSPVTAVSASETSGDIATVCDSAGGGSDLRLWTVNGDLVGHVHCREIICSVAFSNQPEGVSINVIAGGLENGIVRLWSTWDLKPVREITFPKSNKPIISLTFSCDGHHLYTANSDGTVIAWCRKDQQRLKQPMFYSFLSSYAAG
UniProt Q96RQ3: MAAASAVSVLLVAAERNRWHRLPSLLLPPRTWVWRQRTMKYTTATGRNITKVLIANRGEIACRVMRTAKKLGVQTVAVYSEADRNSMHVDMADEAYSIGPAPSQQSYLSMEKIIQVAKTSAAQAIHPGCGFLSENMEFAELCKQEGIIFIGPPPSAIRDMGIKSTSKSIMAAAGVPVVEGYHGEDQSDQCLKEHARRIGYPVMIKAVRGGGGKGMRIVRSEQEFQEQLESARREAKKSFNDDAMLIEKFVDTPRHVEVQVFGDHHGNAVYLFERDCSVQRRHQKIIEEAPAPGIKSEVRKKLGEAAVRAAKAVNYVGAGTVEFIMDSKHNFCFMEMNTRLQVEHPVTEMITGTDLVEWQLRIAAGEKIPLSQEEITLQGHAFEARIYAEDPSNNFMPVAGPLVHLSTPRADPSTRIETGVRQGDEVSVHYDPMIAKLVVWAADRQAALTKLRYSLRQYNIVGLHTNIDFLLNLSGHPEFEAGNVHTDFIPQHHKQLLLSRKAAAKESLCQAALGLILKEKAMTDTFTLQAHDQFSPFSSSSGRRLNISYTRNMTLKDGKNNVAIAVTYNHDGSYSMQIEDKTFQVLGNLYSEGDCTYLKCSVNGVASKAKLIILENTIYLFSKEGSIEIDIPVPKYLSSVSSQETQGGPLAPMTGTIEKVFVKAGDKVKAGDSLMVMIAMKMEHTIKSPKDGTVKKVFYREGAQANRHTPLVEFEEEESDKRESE
UniProt Q9UBB5, whole entry, looked up: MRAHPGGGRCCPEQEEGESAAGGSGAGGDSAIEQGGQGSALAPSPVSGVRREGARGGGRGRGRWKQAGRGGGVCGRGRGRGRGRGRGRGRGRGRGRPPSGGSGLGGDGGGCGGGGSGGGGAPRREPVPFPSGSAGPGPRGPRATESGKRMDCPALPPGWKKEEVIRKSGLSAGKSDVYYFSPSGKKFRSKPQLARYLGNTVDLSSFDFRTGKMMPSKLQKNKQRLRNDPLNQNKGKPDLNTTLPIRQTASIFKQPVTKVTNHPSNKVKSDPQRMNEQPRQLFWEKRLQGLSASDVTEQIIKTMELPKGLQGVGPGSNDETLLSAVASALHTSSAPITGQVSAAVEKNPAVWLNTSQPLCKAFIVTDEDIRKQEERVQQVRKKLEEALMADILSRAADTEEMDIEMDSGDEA
UniProt P56270: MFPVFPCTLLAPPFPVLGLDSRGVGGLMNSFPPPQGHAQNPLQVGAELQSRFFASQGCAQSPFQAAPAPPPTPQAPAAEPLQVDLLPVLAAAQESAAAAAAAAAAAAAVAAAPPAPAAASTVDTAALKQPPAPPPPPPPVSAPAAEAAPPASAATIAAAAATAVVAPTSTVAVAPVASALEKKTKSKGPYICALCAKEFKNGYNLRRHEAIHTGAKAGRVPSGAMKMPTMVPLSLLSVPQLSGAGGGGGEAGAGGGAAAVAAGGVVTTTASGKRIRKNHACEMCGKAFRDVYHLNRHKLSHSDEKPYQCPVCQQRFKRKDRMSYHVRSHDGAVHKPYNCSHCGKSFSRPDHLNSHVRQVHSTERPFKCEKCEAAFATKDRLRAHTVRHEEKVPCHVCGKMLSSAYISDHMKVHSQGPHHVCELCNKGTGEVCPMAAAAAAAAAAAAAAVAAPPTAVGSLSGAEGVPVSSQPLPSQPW
UniProt P45985: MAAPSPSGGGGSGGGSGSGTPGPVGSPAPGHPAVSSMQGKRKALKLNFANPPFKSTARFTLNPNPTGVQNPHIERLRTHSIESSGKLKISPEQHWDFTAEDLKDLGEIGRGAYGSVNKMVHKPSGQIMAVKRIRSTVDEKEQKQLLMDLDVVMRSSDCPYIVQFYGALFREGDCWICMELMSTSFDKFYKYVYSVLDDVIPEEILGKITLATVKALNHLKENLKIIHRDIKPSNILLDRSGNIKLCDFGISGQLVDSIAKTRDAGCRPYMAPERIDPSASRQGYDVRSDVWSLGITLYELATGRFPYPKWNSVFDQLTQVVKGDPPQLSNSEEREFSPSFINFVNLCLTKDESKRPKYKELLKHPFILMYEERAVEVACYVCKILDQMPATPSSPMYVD
UniProt P20645: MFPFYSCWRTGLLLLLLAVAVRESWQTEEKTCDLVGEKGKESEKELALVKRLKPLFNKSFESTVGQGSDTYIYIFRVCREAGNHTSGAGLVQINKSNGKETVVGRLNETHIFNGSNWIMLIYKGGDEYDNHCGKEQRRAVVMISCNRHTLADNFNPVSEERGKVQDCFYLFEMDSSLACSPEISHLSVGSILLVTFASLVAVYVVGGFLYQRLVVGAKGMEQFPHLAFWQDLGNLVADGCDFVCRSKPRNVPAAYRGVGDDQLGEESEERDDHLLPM

Target	probe-labelled cysteine peptide fold change (10 µM)	probe-labelled cysteine peptide fold change (50 µM)
MARS_P56192_389_CEHCAR (UniProt P56192)	-0.00939	-0.304
LYST_Q99698_1855_VHELENCNGLSMIHQVLIK (UniProt Q99698)	-0.138	0.0164
LYAR_Q9NX58_6_VFFTCNACGESVKK (UniProt Q9NX58)	0.047	-0.401
MANBA_O00462_213_IEAYNICHLNYFTFSPIYDK (UniProt O00462)	0.396	0.398
LY75_O60449_782_GWHFYDDREFIYLRPFACDTK (UniProt O60449)	-0.0988	0.0485
MCCC1_Q96RQ3_332_HNFCFMEMNTR (UniProt Q96RQ3)	-0.0362	0.0203
MACF1_Q9UPN3_4752_EAQTLCDELSVLIGEQYLK (UniProt Q9UPN3)	0.064	0.181
LYAR_Q9NX58_36_NCECLSCIDCGK (UniProt Q9NX58)	0.105	0.0594
MBD2_Q9UBB5_111_GRPPSGGSGLGGDGGGCGGGGSGGGGAPR (UniProt Q9UBB5)	-0.142	-1.1
MAZ_P56270_424_VHSQGPHHVCELCNK (UniProt P56270)	0.033	-0.236
MAP2K4_P45985_246_LCDFGISGQLVDSIAK (UniProt P45985)	-0.0625	-0.102
MACF1_Q9UPN3_4581_QLEESASHLACFQAAESQLRPWLMEK (UniProt Q9UPN3)	-0.037	-0.201
M6PR_P20645_32_TCDLVGEK (UniProt P20645)	-0.289	-0.165
MAVS_Q7Z434_133_TSDRPPDPLEPPSLPAERPGPPTPAAAHSIPYNSCR (UniProt Q7Z434)	-0.0559	-0.222

— the supplement of paper PMC12067093, “Discovery and optimisation of a covalent ligand for TRIM25 and its application to targeted protein ubiquitination” (Chemical Science, 2025)
